The source of these data is PMC12594857.

Sequences of proteins named here, by UniProt entry; tags and fusion partners are left off.
UniProt O14965: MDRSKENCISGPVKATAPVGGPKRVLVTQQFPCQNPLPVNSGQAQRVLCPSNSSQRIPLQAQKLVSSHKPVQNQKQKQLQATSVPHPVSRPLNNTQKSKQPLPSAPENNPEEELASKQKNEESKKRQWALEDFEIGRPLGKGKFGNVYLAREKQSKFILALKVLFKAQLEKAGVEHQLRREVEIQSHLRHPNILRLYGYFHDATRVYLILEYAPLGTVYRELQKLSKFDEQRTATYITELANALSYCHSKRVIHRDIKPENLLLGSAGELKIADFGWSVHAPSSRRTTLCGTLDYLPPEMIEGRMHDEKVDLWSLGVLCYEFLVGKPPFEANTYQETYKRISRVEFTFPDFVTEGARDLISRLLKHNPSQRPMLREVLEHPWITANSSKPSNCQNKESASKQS
UniProt O95347: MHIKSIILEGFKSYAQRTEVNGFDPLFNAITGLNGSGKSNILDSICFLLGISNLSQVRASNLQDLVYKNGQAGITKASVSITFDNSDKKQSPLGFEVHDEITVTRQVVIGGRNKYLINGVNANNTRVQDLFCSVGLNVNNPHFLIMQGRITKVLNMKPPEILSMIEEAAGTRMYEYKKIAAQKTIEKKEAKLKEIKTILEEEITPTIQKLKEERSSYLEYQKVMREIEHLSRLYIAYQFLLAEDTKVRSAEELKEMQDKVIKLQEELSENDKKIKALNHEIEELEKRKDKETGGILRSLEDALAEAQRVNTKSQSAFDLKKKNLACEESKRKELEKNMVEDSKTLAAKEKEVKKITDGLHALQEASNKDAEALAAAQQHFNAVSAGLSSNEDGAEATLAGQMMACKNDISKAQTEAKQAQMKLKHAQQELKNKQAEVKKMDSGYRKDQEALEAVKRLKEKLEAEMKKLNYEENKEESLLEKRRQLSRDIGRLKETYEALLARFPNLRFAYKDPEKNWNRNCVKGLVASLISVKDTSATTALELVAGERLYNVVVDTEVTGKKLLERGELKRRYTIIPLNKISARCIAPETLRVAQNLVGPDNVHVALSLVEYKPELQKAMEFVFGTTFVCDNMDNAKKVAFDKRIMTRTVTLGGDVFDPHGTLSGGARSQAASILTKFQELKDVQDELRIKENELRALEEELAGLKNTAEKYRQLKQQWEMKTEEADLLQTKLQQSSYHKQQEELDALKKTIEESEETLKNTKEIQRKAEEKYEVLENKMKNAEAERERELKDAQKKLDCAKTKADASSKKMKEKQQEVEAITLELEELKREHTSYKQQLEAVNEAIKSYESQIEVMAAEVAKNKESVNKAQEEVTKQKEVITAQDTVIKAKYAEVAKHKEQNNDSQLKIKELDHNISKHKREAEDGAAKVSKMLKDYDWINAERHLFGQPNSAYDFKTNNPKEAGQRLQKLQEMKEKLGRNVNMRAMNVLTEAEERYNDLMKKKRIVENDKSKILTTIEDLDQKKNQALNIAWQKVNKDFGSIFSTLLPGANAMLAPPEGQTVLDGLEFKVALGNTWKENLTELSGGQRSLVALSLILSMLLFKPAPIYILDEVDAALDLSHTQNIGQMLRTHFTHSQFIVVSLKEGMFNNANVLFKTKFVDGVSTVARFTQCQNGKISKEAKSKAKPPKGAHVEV
UniProt P46013: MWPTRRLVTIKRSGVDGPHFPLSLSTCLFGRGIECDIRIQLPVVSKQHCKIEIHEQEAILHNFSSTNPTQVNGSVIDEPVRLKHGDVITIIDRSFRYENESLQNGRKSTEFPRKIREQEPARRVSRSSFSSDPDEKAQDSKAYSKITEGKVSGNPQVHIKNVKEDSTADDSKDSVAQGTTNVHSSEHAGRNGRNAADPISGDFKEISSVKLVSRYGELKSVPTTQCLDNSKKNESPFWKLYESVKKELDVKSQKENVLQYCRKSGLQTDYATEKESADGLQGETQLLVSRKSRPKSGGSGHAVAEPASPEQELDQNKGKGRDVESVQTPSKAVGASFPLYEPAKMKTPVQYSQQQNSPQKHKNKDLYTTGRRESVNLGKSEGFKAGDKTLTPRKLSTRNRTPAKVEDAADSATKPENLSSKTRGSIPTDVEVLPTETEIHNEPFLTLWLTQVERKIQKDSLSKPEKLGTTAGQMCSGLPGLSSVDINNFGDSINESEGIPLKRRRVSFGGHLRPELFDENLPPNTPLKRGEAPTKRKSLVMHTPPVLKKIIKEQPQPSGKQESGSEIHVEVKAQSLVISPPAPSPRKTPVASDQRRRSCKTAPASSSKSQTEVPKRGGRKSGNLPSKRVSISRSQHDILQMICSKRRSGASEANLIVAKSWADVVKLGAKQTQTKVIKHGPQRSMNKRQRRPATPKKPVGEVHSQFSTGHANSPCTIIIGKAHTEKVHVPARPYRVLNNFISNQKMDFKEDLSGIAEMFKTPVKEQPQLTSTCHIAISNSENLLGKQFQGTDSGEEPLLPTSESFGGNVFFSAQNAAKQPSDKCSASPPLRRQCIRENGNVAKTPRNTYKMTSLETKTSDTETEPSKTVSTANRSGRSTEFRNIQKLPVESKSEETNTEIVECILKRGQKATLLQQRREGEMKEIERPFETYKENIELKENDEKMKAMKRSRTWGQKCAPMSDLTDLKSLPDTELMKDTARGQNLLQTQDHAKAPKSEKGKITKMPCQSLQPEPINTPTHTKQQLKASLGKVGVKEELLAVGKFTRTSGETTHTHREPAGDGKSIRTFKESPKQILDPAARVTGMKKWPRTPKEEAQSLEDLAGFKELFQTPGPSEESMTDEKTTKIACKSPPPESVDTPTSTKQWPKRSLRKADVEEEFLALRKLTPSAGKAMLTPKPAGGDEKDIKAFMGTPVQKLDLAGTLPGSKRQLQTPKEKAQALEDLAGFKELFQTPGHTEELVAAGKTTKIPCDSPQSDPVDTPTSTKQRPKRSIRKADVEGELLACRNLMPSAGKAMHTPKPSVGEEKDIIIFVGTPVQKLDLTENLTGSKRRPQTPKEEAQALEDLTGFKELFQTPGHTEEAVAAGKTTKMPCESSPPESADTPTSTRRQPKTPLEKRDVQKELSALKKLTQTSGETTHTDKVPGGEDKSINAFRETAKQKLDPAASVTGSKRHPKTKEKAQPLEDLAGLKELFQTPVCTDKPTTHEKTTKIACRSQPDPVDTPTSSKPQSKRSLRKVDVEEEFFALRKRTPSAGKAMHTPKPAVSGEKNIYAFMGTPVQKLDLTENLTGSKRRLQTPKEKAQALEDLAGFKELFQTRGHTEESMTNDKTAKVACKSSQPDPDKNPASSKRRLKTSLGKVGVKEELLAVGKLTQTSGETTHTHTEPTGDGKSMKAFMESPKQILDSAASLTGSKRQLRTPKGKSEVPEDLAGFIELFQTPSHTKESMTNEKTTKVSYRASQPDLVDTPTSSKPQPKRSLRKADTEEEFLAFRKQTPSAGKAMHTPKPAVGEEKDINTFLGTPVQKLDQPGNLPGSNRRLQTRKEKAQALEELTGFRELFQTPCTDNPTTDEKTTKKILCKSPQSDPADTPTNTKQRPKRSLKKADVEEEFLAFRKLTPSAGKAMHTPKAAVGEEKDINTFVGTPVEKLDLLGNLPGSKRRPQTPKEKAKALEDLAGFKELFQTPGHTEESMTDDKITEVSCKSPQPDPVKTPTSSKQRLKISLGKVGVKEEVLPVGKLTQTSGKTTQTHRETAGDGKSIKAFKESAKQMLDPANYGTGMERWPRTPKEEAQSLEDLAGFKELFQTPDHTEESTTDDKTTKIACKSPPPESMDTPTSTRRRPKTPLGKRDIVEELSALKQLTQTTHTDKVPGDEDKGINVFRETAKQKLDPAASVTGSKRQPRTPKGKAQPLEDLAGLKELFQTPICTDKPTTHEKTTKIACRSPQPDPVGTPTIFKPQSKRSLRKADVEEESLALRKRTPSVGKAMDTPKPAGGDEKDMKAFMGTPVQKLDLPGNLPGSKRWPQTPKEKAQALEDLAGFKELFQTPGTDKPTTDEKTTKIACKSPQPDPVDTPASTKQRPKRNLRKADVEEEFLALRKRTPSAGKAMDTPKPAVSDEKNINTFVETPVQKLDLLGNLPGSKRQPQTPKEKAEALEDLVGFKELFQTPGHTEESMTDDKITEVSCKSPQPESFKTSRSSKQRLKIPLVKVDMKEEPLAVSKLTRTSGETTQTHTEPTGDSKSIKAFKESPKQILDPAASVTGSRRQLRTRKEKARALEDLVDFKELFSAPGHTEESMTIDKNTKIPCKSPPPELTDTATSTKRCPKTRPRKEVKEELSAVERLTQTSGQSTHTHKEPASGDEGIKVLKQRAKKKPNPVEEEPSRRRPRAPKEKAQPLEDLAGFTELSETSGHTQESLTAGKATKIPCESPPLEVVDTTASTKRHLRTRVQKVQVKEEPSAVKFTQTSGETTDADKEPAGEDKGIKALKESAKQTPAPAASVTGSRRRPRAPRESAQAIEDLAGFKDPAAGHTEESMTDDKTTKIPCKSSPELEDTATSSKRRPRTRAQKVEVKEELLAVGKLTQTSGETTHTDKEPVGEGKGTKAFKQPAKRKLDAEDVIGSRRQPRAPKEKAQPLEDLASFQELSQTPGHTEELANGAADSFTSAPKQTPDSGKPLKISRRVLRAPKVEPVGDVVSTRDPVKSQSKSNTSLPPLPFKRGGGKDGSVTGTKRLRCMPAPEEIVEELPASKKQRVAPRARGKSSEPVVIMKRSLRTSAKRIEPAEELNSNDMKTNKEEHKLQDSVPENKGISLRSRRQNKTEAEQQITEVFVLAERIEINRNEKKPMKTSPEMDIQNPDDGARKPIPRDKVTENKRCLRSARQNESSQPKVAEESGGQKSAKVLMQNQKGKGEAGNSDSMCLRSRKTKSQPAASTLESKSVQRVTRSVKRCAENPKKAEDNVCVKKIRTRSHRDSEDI

No constants are given. Whether binding was seen depends on the method and setting. Binding seen in cells or lysates may run through a third protein. These calls come from enrichment with a bait or labelling near it, and not all partners need be listed.

The target of the assay is Aurora Kinase A (AURKA), endogenous (human (endogenous in HeLa)) (UniProt O14965). Kind of assay: affinity purification with mass spectrometry; anti-AURKA immunoprecipitation from chromosome-binding proteins of M-phase HeLa cells treated with Act D, BMH-21 or CX5461; mass spectrometry.

For the substance “SMC2, endogenous (from UniProt O95347 1-1197)”, the binding result is reported as “binds”.

In the case of “Ki-67, endogenous (from UniProt P46013 1-3256)”, the binding entry is reported as “binds”.
